The supplement of paper PMC12067093, “Discovery and optimisation of a covalent ligand for TRIM25 and its application to targeted protein ubiquitination” (Chemical Science, 2025)
Some of the results follow.

Chains of the proteins cited; added tags and fusions are not shown. Lines headed by an entry give the natural chain unless they say otherwise; changes in a name come on top.
UniProt Q5VTB9: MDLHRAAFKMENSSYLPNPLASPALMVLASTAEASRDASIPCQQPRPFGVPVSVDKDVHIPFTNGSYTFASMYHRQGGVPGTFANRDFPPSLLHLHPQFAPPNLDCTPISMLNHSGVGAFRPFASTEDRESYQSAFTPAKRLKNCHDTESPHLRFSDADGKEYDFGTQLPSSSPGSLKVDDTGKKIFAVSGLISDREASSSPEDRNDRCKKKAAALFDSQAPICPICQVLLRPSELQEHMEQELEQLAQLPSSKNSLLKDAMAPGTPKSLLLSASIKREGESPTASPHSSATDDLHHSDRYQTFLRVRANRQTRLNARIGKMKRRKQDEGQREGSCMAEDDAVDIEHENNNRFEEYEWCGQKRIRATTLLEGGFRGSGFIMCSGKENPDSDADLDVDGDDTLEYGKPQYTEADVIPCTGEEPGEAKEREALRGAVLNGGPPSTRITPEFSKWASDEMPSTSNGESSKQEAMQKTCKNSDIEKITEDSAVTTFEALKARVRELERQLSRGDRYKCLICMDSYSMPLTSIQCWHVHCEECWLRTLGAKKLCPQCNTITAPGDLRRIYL
UniProt Q5M7Z0: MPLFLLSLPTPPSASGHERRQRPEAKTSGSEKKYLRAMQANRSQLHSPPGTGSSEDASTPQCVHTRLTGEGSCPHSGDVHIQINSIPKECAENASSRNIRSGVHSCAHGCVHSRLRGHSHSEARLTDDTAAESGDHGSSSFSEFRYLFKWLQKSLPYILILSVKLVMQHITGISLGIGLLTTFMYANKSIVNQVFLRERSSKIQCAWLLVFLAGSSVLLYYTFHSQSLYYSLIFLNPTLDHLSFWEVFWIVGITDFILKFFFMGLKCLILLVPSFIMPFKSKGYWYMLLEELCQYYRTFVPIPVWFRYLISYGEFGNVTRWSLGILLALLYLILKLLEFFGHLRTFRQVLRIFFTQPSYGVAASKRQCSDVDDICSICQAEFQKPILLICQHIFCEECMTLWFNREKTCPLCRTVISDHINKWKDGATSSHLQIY
UniProt P13489: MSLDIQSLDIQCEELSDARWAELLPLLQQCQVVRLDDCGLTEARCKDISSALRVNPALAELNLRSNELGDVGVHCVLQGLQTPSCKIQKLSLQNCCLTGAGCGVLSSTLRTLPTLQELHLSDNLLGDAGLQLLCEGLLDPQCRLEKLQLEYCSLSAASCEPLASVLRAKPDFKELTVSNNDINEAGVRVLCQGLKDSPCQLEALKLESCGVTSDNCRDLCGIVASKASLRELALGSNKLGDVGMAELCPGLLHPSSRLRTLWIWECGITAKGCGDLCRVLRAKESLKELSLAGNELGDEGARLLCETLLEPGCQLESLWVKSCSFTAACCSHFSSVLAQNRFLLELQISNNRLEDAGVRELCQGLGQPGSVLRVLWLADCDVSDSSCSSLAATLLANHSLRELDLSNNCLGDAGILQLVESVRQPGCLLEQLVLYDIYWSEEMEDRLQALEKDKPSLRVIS
UniProt Q96EP0: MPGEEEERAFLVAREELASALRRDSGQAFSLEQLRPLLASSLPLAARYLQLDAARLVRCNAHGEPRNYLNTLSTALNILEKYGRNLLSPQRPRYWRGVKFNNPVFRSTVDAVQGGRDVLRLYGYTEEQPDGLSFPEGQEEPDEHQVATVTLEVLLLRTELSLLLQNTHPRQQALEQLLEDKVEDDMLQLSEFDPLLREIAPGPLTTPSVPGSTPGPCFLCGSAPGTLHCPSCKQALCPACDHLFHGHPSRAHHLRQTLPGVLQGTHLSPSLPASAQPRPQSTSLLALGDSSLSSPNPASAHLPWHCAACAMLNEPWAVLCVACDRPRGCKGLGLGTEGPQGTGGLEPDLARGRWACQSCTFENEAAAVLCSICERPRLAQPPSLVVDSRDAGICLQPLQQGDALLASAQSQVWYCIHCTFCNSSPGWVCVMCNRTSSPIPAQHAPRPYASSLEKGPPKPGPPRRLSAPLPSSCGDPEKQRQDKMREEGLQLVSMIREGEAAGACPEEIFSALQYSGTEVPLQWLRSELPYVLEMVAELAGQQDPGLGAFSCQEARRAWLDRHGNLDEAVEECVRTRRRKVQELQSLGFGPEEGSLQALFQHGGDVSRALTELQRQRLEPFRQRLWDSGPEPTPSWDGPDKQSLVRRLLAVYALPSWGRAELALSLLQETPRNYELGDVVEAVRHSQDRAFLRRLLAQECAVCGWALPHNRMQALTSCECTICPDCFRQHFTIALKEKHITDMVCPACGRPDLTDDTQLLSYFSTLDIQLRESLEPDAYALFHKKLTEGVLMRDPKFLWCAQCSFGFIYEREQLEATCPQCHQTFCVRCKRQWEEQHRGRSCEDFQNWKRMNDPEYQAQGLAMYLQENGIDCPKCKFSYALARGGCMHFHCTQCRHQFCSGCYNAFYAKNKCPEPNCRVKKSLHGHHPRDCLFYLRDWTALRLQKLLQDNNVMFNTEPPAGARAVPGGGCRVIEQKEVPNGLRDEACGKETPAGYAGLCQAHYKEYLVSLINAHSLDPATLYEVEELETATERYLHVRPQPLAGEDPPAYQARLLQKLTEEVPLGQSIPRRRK
UniProt Q9P0P0: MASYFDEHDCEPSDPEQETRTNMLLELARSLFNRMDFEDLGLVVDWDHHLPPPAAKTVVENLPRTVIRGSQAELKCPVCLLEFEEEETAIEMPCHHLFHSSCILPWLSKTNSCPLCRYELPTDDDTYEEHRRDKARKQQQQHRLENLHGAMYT
UniProt O60942: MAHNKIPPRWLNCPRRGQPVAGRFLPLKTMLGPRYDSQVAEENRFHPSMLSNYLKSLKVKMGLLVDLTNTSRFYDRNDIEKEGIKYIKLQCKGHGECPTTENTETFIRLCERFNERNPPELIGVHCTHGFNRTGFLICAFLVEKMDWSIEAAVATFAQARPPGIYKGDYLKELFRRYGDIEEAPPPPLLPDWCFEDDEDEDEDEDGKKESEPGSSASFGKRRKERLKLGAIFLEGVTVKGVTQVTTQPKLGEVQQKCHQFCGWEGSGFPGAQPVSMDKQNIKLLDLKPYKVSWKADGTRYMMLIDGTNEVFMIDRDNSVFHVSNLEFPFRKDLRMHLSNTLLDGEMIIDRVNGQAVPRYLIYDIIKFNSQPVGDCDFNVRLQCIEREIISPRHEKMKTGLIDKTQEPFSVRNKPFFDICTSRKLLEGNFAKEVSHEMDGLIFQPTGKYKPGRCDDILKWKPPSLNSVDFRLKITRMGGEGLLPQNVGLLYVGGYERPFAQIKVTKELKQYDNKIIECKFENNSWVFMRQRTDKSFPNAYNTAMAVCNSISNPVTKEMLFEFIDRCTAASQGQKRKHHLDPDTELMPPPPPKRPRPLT
UniProt Q5VTR2, whole entry, looked up: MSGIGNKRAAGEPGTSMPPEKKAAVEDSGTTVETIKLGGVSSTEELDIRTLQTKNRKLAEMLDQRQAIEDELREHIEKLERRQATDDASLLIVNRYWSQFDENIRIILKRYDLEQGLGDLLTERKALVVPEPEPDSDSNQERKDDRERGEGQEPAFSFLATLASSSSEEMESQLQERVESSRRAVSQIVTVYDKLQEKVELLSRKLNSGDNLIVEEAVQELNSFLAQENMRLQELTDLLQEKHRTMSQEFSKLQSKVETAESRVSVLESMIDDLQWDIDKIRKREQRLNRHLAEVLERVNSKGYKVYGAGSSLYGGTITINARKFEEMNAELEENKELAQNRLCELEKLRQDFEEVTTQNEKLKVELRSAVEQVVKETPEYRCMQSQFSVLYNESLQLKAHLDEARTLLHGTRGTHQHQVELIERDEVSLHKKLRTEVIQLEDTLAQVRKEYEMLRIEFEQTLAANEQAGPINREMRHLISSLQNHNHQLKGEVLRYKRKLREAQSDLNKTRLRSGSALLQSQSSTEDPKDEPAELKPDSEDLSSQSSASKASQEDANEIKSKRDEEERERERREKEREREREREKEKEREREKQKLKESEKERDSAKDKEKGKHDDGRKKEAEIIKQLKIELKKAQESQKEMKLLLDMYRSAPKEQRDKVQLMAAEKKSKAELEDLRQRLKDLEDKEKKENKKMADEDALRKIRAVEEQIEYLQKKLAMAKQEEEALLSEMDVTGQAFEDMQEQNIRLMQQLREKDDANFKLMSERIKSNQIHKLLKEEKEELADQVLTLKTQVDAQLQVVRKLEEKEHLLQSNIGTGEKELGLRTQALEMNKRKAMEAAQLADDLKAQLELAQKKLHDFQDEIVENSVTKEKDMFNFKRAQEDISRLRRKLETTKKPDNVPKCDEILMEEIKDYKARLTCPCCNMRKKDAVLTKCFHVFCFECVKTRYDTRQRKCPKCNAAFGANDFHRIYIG
UniProt O43148, whole entry, looked up: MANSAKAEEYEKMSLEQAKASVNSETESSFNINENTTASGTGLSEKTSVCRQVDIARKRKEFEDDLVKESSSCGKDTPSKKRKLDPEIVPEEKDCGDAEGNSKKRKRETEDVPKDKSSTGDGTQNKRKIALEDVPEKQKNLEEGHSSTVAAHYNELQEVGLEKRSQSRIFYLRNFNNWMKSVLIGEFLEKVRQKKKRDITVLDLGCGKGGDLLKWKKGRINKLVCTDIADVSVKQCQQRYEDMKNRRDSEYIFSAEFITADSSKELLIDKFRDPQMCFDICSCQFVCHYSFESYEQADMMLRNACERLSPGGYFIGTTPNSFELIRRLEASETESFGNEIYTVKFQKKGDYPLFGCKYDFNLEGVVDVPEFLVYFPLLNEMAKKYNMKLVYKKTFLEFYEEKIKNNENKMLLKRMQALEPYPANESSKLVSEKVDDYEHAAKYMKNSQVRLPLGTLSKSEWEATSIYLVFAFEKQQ
UniProt O75150, whole entry, looked up: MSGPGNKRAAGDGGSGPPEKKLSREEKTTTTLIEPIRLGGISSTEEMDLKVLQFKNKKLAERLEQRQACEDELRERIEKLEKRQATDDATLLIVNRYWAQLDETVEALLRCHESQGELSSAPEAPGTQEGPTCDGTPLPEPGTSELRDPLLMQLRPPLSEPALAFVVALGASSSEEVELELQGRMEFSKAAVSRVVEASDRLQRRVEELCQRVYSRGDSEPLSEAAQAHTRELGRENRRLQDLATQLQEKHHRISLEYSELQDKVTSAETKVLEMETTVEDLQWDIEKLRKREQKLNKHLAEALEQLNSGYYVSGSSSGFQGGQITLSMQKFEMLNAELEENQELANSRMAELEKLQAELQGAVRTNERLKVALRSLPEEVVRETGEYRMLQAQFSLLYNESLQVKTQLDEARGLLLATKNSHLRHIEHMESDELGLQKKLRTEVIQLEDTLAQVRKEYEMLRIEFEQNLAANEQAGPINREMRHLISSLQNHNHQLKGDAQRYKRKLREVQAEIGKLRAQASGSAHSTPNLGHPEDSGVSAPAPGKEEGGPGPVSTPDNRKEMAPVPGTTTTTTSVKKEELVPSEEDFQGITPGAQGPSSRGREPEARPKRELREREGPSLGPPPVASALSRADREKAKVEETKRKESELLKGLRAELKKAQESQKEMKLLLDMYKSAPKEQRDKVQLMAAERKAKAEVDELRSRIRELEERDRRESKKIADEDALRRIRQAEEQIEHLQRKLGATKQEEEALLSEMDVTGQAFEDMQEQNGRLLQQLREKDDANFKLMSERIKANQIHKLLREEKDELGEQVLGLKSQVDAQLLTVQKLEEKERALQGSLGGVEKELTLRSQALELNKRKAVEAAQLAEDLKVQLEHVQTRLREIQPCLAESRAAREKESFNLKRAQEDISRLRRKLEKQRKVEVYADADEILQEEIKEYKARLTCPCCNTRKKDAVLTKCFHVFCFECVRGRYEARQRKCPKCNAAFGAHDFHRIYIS
UniProt Q5W0B1: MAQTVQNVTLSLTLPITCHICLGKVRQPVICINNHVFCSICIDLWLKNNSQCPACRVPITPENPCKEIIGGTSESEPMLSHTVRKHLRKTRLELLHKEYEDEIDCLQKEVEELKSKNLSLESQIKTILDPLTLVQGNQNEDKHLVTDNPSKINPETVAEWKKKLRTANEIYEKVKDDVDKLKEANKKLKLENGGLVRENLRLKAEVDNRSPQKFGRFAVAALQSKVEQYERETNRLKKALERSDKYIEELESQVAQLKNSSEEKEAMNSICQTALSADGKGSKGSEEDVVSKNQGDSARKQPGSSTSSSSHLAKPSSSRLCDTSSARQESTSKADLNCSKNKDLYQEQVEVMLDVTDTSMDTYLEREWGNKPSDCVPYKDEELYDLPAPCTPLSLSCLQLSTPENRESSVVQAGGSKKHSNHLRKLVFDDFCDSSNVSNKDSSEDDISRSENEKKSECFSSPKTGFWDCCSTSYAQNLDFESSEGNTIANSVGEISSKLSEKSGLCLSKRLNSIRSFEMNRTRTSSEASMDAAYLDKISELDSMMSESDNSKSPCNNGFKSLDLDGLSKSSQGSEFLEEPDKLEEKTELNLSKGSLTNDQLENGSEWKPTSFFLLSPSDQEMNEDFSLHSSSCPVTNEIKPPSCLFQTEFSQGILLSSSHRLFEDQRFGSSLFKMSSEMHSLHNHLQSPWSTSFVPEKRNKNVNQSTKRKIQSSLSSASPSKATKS
UniProt Q9UBF6, whole entry, looked up: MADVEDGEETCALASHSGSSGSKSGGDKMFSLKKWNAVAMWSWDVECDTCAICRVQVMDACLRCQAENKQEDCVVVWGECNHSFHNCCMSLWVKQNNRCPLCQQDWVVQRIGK

Compound: Cc1cc(ccc1-c1ccccc1)C(=O)N1CCCN(CC1)C(=O)CCl [compound 10]
Test: probe-labelled cysteine peptide fold change vs DMSO (competition) (log2 fold change); higher = less target engagement (more negative = stronger competition)
Conditions: THP-1, incubation time: 4 h
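Also: competitive profiling in live THP-1 cells: cysteine peptides tagged with an iodoacetamide desthiobiotin (IA-DTB) probe, intensity after compound treatment relative to DMSO-treated cells.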

Target | probe-labelled cysteine peptide fold change (10 µM) | probe-labelled cysteine peptide fold change (50 µM)
RPL4_P36578_125_YAICSALAASALPALVMSK (UniProt P36578) | 0.141 | -0.0535
RPRD2_Q5VT52_88_LNLFYLANDVIQNCK (UniProt Q5VT52) | -0.0751 | 0.293
RPL12_P30050_162_HPHDIIDDINSGAVECPAS (UniProt P30050) | -0.122 | -0.000329
RPL18A_Q02543_64_SSGEIVYCGQVFEK (UniProt Q02543) | -0.123 | 0.188
RNF220_Q5VTB9-3_115_HVEHCLSK (UniProt Q5VTB9) | -0.0623 | -0.261
RNFT1_Q5M7Z0_106_SGVHSCAHGCVHSR (UniProt Q5M7Z0) | 0.244 | 0.197
RP2_O75695_131_KLEVFLCCATQPIIESSSNIK (UniProt O75695) | 0.0489 | -0.00445
RNH1_P13489_96_LSLQNCCLTGAGCGVLSSTLR (UniProt P13489) | -0.12 | -0.265
RNF31_Q96EP0_572_HGNLDEAVEECVR (UniProt Q96EP0) | -0.0246 | -0.134
RPL5_P46777_62_VTNRDIICQIAYAR (UniProt P46777) | -0.115 | -0.537
RNH1_P13489_329+330_SCSFTAACCSHFSSVLAQNR (UniProt P13489) | -0.00845 | -0.113
RPP25_Q9BUL9_16_SEEAPAGCGAEGGGPGSGPFADLAPGAVHMR (UniProt Q9BUL9) | 0.048 | -0.186
RPL18A_Q02543_64_KSSGEIVYCGQVFEK (UniProt Q02543) | -0.13 | -0.411
RNF181_Q9P0P0_116_TNSCPLCR (UniProt Q9P0P0) | 0.0375 | -0.333
RNGTT_O60942_375_FNSQPVGDCDFNVR (UniProt O60942) | -0.122 | -0.31
RPL34_P49207_46_SACGVCPGR (UniProt P49207) | -0.0589 | -0.837
RNF20_Q5VTR2_905_CDEILMEEIK (UniProt Q5VTR2) | -0.192 | -0.151
RPL23_P62829_125_ECADLWPR (UniProt P62829) | -0.0945 | -0.0853
RNH1_P13489_75+85_SNELGDVGVHCVLQGLQTPSCK (UniProt P13489) | -0.0955 | -0.306
RNMT_O43148_73_ESSSCGK (UniProt O43148) | -0.293 | -0.271
RNF214_Q8ND24_655_SSHAPATCK (UniProt Q8ND24) | 0.22 | -0.471

A few values from the list.
Under probe-labelled cysteine peptide fold change (50 µM), RNF20_Q5VTR2_905_CDEILMEEIK (UniProt Q5VTR2) is entered as -0.151
Under probe-labelled cysteine peptide fold change (10 µM), RNMT_O43148_73_ESSSCGK (UniProt O43148) is entered as -0.293
Under probe-labelled cysteine peptide fold change (50 µM), RNF220_Q5VTB9-3_115_HVEHCLSK (UniProt Q5VTB9) is entered as -0.261

(continued)

Target | probe-labelled cysteine peptide fold change (10 µM) | probe-labelled cysteine peptide fold change (50 µM)
RNF40_O75150_986_CNAAFGAHDFHR (UniProt O75150) | 0.0562 | 0.0799
ROCK1_Q13464_1300_DMLLLACSQDEQKK (UniProt Q13464) | -0.0886 | -0.442
RNF219_Q5W0B1_105_EYEDEIDCLQK (UniProt Q5W0B1) | 0.0268 | 0.0444
RPL12_P30050_141_EILGTAQSVGCNVDGR (UniProt P30050) | 0.117 | 0.0259
RNH1_P13489_313_LLCETLLEPGCQLESLWVK (UniProt P13489) | 0.0722 | 0.0415
RNFT1_Q5M7Z0_90_ECAENASSR (UniProt Q5M7Z0) | -0.264 | -0.647
RPL18A_Q02543_109_EYRDLTTAGAVTQCYR (UniProt Q02543) | -0.245 | -0.818
RPP38_P78345_80_CSIAVDISENLK (UniProt P78345) | -0.0949 | -0.313
RNH1_P13489_199_DSPCQLEALK (UniProt P13489) | -0.2 | -0.166
RPL10_P27635_49_AKVDEFPLCGHMVSDEYEQLSSEALEAAR (UniProt P27635) | -0.186 | -0.281
RNF213_Q63HN8_1796_CLPAFLPDCLDLETLGHCLAHLAGMGGSPVER (UniProt Q63HN8) | 0.473 | 0.152
RPL7_P18124_186_SLGKYGIICMEDLIHEIYTVGKR (UniProt P18124) | -0.0866 | -0.713
RPAP3_Q9H6T3_190_KFAVAESDCNLAVALNR (UniProt Q9H6T3) | 0.117 | -0.212
RPL37A_P61513_60_AVGIWHCGSCMK (UniProt P61513) | -0.0854 | 0.018
RNF7_Q9UBF6_61_VQVMDACLR (UniProt Q9UBF6) | -0.0469 | -0.457
RNF40_O75150_890_EIQPCLAESR (UniProt O75150) | 0.0946 | -0.197
RNGTT_O60942_126_NPPELIGVHCTHGFNR (UniProt O60942) | -0.00979 | -0.13
RPL37_P61927_19_THTLCR (UniProt P61927) | 0.0667 | -0.37
RPL8_P62917_90_TELFIAAEGIHTGQFVYCGK (UniProt P62917) | 0.0716 | -0.0679
RNF40_O75150_971_CFHVFCFECVR (UniProt O75150) | 0.147 | 0.239
RNF220_Q5VTB9_382_GSGFIMCSGK (UniProt Q5VTB9) | -0.344 | -0.436
